This experiment deals with human neural stem cells (hNSCs). The experiment in a line: Neuronal differentiation of human neural stem cells (TUJ-1 staining, concentration response curves). The note with it: Neural stem cell, agent alone. The format is cell-based. An excerpt: Mitogen-free test media with a positive control for neuronal differentiation was used along with basal media without growth factors as a negative control. […]

Where two headings read alike, the source gives them in different places.

`CC(=O)Nc1nnc(S(N)(=O)=O)s1` [acetazolamide]: the EC50 – broadly, the midpoint of the concentration-response curve – (extrapolated, read-out: EC50 of neuronal differentiation, agent used alone, estimated by extrapolation of the observed data) was 66 µM.

Regarding `CC/C(=C(\c1ccccc1)c1ccc(OCCN(C)C)cc1)c1ccccc1` [tamoxifen], the EC50 (percentage of neuronal positive control, basal media subtracted, read-out: EC50 of neuronal differentiation, agent used alone) was 1.5 µM.
